“And” between values parts separate entries of the source, which are not always exact repeats. Equal values may be shown once. Inconclusive results, whose numbers are uncertain, are shown with a selection of clear calls. Potencies beside an inconclusive call are fits to weak or partial responses and may not hold up. A structure can be active in one record and inactive in another. The source made the active and inactive calls. The call rests on the fitted dose curve; in most records, active means well fitted inhibition curve with a large enough effect in the repeat runs; inconclusive means weak or mixed curves; inactive means no such curve, though single readings can be large or run the other way.
These compounds were tested against Cytochrome P450 2C9 (Homo sapiens) (UniProt P11712) (assay: Cytochrome P450 Family 2 Subfamily C Member 9 (CYP2C9) small molecule antagonists: luciferase reporter qHTS assay (AID 1671198)). Settings: P450-Glo CYP2C9 enzyme assay, luciferin luminescence; series mostly up to 115 µM; activity change, negative = inhibition: at the top concentration.
How it was run: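 P450-Glo proluciferin substrate with CYP2C9 enzyme; 10 min RT preincubation, then NADPH regeneration 1 h at 37C; luciferin detection reagent 20 min RT, luminescence in relative luminescence units.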
Further: nearly all actives have a fitted effect of over 50% in size.
On the % scale 0 is the no-effect control and ±100 the full control effect; potency means the concentration at half of the fitted maximal effect.

The chains behind the UniProt entries cited, without tags or fusion partners.
UniProt P11712, whole entry, looked up: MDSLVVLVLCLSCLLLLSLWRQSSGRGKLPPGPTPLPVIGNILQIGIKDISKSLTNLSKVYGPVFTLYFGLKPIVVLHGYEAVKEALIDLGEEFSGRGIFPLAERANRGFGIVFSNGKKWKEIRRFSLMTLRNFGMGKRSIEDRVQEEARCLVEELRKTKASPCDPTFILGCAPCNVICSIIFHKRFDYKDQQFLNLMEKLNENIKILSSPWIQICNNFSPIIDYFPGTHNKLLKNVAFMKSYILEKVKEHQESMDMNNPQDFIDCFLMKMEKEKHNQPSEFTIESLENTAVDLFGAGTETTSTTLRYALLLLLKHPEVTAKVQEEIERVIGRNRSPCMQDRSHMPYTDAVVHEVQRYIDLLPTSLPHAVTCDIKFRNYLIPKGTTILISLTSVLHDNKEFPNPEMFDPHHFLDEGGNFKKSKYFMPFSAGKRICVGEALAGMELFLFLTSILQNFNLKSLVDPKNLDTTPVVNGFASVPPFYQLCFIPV
UniProt P05177, whole entry, looked up: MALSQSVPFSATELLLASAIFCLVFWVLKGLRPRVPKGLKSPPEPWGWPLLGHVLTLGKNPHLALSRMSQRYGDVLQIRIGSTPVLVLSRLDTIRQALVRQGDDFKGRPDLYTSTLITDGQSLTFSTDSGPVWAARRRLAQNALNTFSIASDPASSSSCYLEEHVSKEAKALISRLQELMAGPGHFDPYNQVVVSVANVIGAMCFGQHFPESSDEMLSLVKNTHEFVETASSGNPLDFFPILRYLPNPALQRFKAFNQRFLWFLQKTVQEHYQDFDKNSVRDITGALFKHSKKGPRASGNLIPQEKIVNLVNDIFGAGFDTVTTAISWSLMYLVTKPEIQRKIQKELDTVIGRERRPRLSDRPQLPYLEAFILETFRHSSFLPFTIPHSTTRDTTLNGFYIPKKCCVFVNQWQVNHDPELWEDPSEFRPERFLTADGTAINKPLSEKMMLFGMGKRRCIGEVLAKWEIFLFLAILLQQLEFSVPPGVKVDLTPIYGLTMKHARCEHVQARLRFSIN

Row | Structure (SMILES) | Potency | activity change, negative = inhibition
1 | C=CCN=C=S | inconclusive: 40.8 µM [inhibitor] | 
2 | CN(C)CCC#N | inactive | 
3 | Cc1c([N+](=O)[O-])cc2c(c1[N+](=O)[O-])C(C)(C)CC2(C)C | inconclusive: 11.2 µM [inhibitor, full curve, poor fit] | 
4 | O=Cc1cccc(Oc2ccccc2)c1 | inconclusive: 56.4 µM [inhibitor, partial curve, poor fit] | 
5 | CCOC(=O)C1OC1(C)c1ccccc1 (stereo unspecified) | inconclusive: 63.8 µM [inhibitor, partial curve, poor fit] and inconclusive: 63.3 µM [inhibitor] | 
6 | OCCSSCCO | inconclusive: 31.7 µM [inhibitor, partial curve, poor fit] | 
7 | c1ccc2c(c1)sc1ccccc12 | inconclusive: 56.4 µM [inhibitor, partial curve] | 
8 | CC1(C)Cc2cccc(O)c2O1 | inconclusive: 50.2 µM [inhibitor, partial curve, poor fit] | 
9 | CC[N+]1(C)CCCC1 | inconclusive: 40.9 µM [inhibitor, partial curve] | 
10 | OCCBr |  | inactive: -10.9%
11 | CC[C@@H](CO)NC(=O)[C@@H]1C=C2c3cccc4c3c(cn4C)C[C@H]2N(C)C1 | inconclusive: 24.5 µM [inhibitor, partial curve] | 
12 | COc1cc(OC)nc(NC(=O)NS(=O)(=O)c2ncccc2OCC(F)(F)F)n1 | inconclusive: 60.1 µM [inhibitor, partial curve] | 
13 | CCC[N+](=O)[O-] | inconclusive: 39.2 µM [inhibitor, partial curve] | 
14 | O=S(=O)(c1ccc(Cl)cc1)c1cc(Cl)c(Cl)cc1Cl | inconclusive: 14.1 µM [inhibitor, full curve] | 
15 | O=P(O)(O)CCCl | inconclusive: 70.7 µM [inhibitor, partial curve, poor fit] | 
16 | O=S(=O)(Cl)Cl |  | inactive: -0.284%
17 | Cc1cnc2c(C(=O)O)c(Cl)ccc2c1 |  | inactive: -17.9%
18 | Cc1ccc(-c2c(Cl)nc(C#N)n2S(=O)(=O)N(C)C)cc1 | active: 11.2 µM | 
19 | C=CCc1ccc(OC)cc1 | inactive | 

Row | Structure (SMILES) | Potency | activity change, negative = inhibition
20 | OCC1CO1 (stereo unspecified) | inactive | 
21 | COC(=O)Nc1cccc(OC(=O)Nc2cccc(C)c2)c1 | inactive | 
22 | NCCc1cc(O)c(O)cc1O | inconclusive: 30.9 µM [inhibitor, partial curve] | 
23 | Cc1ccccc1O | inconclusive: 39.8 µM [inhibitor, partial curve, poor fit] and inactive | 
24 | NC(=O)C(Cl)Cl |  | inactive: 5.6%
25 | CC(=O)OC1(c2ccccc2)CCN(CCc2ccccc2)CC1 | inconclusive: 72.7 µM [inhibitor, partial curve, poor fit] | 
26 | CCBr | inconclusive: 57.3 µM [inhibitor, partial curve, poor fit] | 
27 | CCSCc1ccccc1OC(=O)NC | inconclusive: 39.9 µM [inhibitor, partial curve] | 
28 | CCCCCCCCCCOC(=O)c1ccccc1C(=O)OCCCCCCCCCC |  | inactive: -12%
29 | O=S(=O)(O)OOS(=O)(=O)O | inactive | 
30 | O=c1[nH]c2cc(Cl)ccc2n1C1CCNCC1 | inconclusive: 38.9 µM [inhibitor, partial curve, poor fit] | 
31 | CC1C(=O)C[C@]2(C(C)C)C[C@H]12 (stereo partly specified) | inconclusive: 61.3 µM [inhibitor, partial curve] | 
32 | CN(C)C(=O)C(c1ccccc1)c1ccccc1 | inconclusive: 39.9 µM [inhibitor, partial curve] | 
33 | CC(Cl)Cl |  | inactive: 0.184%
34 | CCCCN(CC)c1c([N+](=O)[O-])cc(C(F)(F)F)cc1[N+](=O)[O-] | inconclusive: 32.2 µM [inhibitor] | 
35 | N#CC(Br)Br | inactive | 
36 | Cc1[nH]c(=O)n(C(C)(C)C)c(=O)c1Cl | inactive and inconclusive: 71 µM [inhibitor] | 
37 | CCOC(=O)Cc1ccccc1 | inconclusive: 79.6 µM [inhibitor, partial curve, poor fit] | 
38 | Cl/C=C/Cl | inactive and inconclusive: 71 µM [inhibitor, single point] | 

The compounds below were run against Cytochrome P450 1A2 (Homo sapiens) (UniProt P05177) (assay: Cytochrome P450 Family 1 Subfamily A Member 2 (CYP1A2) small molecule antagonists: luciferase reporter qHTS assay (AID 1671199)). Settings: P450-Glo CYP1A2 enzyme, luciferin luminescence, 1 h; series mostly up to 115 µM; activity change, negative = inhibition: at the top concentration.
How it was run: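 Quantitative high-throughput format using the P450-Glo CYP1A2 system. Reaction initiated by NADPH regeneration solution, 1 h at room temperature, then stopped with detection reagent; luminescence measured 20 min later.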

Row | Structure (SMILES) | Potency | activity change, negative = inhibition
39 | C=CCN=C=S | inconclusive: 64.7 µM [inhibitor, partial curve] | 
40 | CN(C)CCC#N | inconclusive: 72.9 µM [inhibitor, partial curve, poor fit] | 
41 | Cc1c([N+](=O)[O-])cc2c(c1[N+](=O)[O-])C(C)(C)CC2(C)C | active: 8.94 µM | 
42 | O=Cc1cccc(Oc2ccccc2)c1 | active: 35.9 µM and inactive | 
43 | CCOC(=O)C1OC1(C)c1ccccc1 (stereo unspecified) | inconclusive: 35.9 µM [inhibitor, partial curve] and inconclusive: 39.9 µM [inhibitor, partial curve] | 
44 | OCCSSCCO | inconclusive: 25.2 µM [inhibitor, partial curve] | 
45 | c1ccc2c(c1)sc1ccccc12 | active: 3.17 µM and active: 2.57 µM | 
46 | CC1(C)Cc2cccc(O)c2O1 | inconclusive: 65.7 µM [inhibitor, partial curve] and inconclusive: 44.8 µM [inhibitor, partial curve] | 
47 | CC[N+]1(C)CCCC1 | inconclusive: 71.2 µM [inhibitor, partial curve, poor fit] | 
48 | OCCBr | inconclusive: 63.4 µM [inhibitor, partial curve] | 
49 | CC[C@@H](CO)NC(=O)[C@@H]1C=C2c3cccc4c3c(cn4C)C[C@H]2N(C)C1 | inconclusive: 27.5 µM [inhibitor, partial curve] | 
50 | COc1cc(OC)nc(NC(=O)NS(=O)(=O)c2ncccc2OCC(F)(F)F)n1 | inconclusive: 33.8 µM [inhibitor, partial curve] | 
51 | CCC[N+](=O)[O-] | inconclusive: 55.4 µM [inhibitor, partial curve] | 
52 | O=S(=O)(c1ccc(Cl)cc1)c1cc(Cl)c(Cl)cc1Cl | inconclusive: 17.8 µM [inhibitor, full curve, poor fit] and inconclusive: 28.3 µM [inhibitor, partial curve] | 
53 | O=P(O)(O)CCCl | inconclusive: 70.7 µM [inhibitor, partial curve] | 
54 | O=S(=O)(Cl)Cl |  | inactive: -10.7%
55 | Cc1cnc2c(C(=O)O)c(Cl)ccc2c1 | inconclusive: 71 µM [inhibitor, partial curve] | 
56 | Cc1ccc(-c2c(Cl)nc(C#N)n2S(=O)(=O)N(C)C)cc1 | active: 22.4 µM | 
57 | C=CCc1ccc(OC)cc1 | inconclusive: 38.7 µM [inhibitor, partial curve] and inconclusive: 35.6 µM [inhibitor, partial curve, poor fit] | 

Row | Structure (SMILES) | Potency | activity change, negative = inhibition
58 | OCC1CO1 (stereo unspecified) | inconclusive: 72.2 µM [inhibitor, partial curve] | 
59 | COC(=O)Nc1cccc(OC(=O)Nc2cccc(C)c2)c1 | active: 7.1 µM and active: 17.8 µM | 
60 | NCCc1cc(O)c(O)cc1O |  | inactive: -9.55% [at 53 µM]
61 | Cc1ccccc1O | inconclusive: 35.5 µM [inhibitor, partial curve, poor fit] | 
62 | NC(=O)C(Cl)Cl |  | inactive: -19.5%
63 | CC(=O)OC1(c2ccccc2)CCN(CCc2ccccc2)CC1 |  | inactive: -4.15%
64 | CCBr | inconclusive: 90.7 µM [inhibitor, single point] | 
65 | CCSCc1ccccc1OC(=O)NC | active: 63.3 µM | 
66 | CCCCCCCCCCOC(=O)c1ccccc1C(=O)OCCCCCCCCCC |  | inactive: -18%
67 | O=S(=O)(O)OOS(=O)(=O)O | inconclusive: 35.7 µM [inhibitor, partial curve] | 
68 | O=c1[nH]c2cc(Cl)ccc2n1C1CCNCC1 | inconclusive: 24.5 µM [inhibitor, partial curve] | 
69 | CC1C(=O)C[C@]2(C(C)C)C[C@H]12 (stereo partly specified) | inconclusive: 34.5 µM [inhibitor, partial curve] | 
70 | CN(C)C(=O)C(c1ccccc1)c1ccccc1 | inactive and inconclusive: 39.9 µM [inhibitor] | 
71 | CC(Cl)Cl | inconclusive: 76.1 µM [inhibitor, partial curve, poor fit] | 
72 | CCCCN(CC)c1c([N+](=O)[O-])cc(C(F)(F)F)cc1[N+](=O)[O-] | inconclusive: 22.8 µM [inhibitor, full curve, poor fit] | 
73 | N#CC(Br)Br | inactive | 
74 | Cc1[nH]c(=O)n(C(C)(C)C)c(=O)c1Cl | inconclusive: 35.9 µM [inhibitor, partial curve, poor fit] and inconclusive: 35.6 µM [inhibitor, partial curve] | 
75 | CCOC(=O)Cc1ccccc1 | inconclusive: 79.6 µM [inhibitor, partial curve] | 
76 | Cl/C=C/Cl | inconclusive: 77 µM [inhibitor, partial curve, poor fit] and inconclusive: 44.8 µM [inhibitor, partial curve] | 
